Results reported in patent publication US20030082723.

Molecular target: T1, Cre recombinase (bacteriophage P1) (UniProt P06956)
T1 sequence (looked up, limits assumed): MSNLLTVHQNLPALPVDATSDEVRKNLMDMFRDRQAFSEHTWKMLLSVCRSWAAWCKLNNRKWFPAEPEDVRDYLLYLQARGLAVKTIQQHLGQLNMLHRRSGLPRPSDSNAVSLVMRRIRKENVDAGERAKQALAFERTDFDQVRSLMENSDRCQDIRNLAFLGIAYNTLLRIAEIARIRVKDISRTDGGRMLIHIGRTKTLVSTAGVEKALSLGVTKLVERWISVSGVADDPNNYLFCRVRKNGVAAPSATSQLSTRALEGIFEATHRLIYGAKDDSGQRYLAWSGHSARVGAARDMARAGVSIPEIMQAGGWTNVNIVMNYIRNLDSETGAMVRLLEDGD
Assay: activity in cells
Conditions: 30 C, less efficient in p2725, protein in cells, protein details: expressed from plasmid p2676 in E. coli, only the site is given

Row | Sequence | activity on this sequence (efficient recombination with directly oriented lox71 in E. coli (p2722, p2724)) | activity on this sequence (efficient recombination with directly oriented lox66 in E. coli (p2722, p2724))
1 | ATTCCATAACTTCGTATAGCATACATTATACGAACGGTATCTCG (double strand) [lox66 (with flanks)] | active | –
2 | GCTTCTACCGTTCGTATAGCATACATTATACGAAGTTATCTCTT (double strand) [lox71 (with flanks)] | – | active

Where a protein sequence is shown, tags need not be part of it.
